The record followed here is US11866412B1, “Acridin-9-one compounds as antibacterial agents” (KING FAISAL UNIVERSITY, priority 2023, dated 2024).

Assay in all cases: in vitro antibacterial activity, dilution MIC (CLSI M07-A10)
What all share (type): cell-based

Assay [1] concerns Escherichia coli MTCC 443. To be noted: MTCC443.
Assay [2] deals with Staphylococcus aureus ATCC BAA-1556 (MERSA resistant). To be noted: ATCCBAA1556.
Assay [3] relates to Enterococcus faecium ATCC 35667. Particulars: ATCC35667.
For assay [4], the system named is Staphylococcus epidermidis.
Assay [5] relates to Enterococcus faecium ATCC 51559 (VRE resistant).
In assay [6] the test system is Staphylococcus aureus ATCC 29213. To be noted: ATCC29213.
The subject of assay [7] is Pseudomonas aeruginosa MTCC 741. To be noted: MTCC741.
Assay [8] deals with Bacillus subtilis MTCC 441. Particulars: MTCC441.

Molecules are shown by their SMILES. Values after ≈ are worked out from the molar mass of the structure shown.

As to `CN[C@H](CC(C)C)C(=O)N[C@H]1C(=O)N[C@@H](CC(N)=O)C(=O)N[C@H]2C(=O)N[C@H]3C(=O)N[C@H](C(=O)N[C@H](C(=O)O)c4cc(O)cc(O)c4-c4cc3ccc4O)[C@H](O)c3ccc(c(Cl)c3)Oc3cc2cc(c3O[C@@H]2O[C@H](CO)[C@@H](O)[C@H](O)[C@H]2O[C@H]2C[C@](C)(N)[C@H](O)[C@H](C)O2)Oc2ccc(cc2Cl)[C@H]1O` [Vancomycin, reference compound], the MIC is more than 128 µg/mL in assay [1]; 1 µg/mL (≈ 0.69 µM) in assay [2]; 0.5 µg/mL (≈ 0.345 µM) in assay [3]; 1 µg/mL (≈ 0.69 µM) in assay [4]; more than 128 µg/mL in assay [5]; 1 µg/mL (≈ 0.69 µM) in assay [6]. For the same compound, the MIC in assay [7] was more than 128 µg/mL; in assay [8], 0.5 µg/mL (≈ 0.345 µM).
